Assay results from PubChem BioAssay AID493014 (National Center for Advancing Translational Sciences (NCATS), 2011).
The other results are listed elsewhere or left out. Shown are side measurements of this screen, not its main read-out; they come without a call. Compounds called inactive in the main read-out are mostly missing here. The note in brackets gives the kind of curve behind each potency; many fits are weak.

Assay: qHTS Assay to Find Inhibitors of Chronic Active B-Cell Receptor Signaling
Details: ABC-DLBCL IkBa-CBG/CBR reporter, luminescence ratio (green luciferase fused to IkBa over red control in TMD8 lymphoma cells), 4 h
Outline: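 TMD8 ABC-DLBCL cells carrying doxycycline-inducible green luciferase fused to IkappaBalpha plus unfused red luciferase were exposed to compounds (up to 46 uM) for 4 hrs at 37C. Activity came from the overlap-corrected green/red luminescence ratio.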

[1] = measured here: CBR red luminescence, cell number
[2] = measured here: IkBa-CBG green luminescence

## CCOC(=O)c1nn(-c2ccccc2)c(=O)c2c(N)sc(C)c12
[1]
  AC50: 23.1 µM [rising, partial curve]

## Cc1ccccc1NC(=O)c1cc(=O)c2ccccc2o1
[1]
  AC50: 3.98 µM [falling, partial curve, poor fit]

## Cc1cccc(-n2ncc3c(NC(C)C)ncnc32)c1
[1]
  AC50: 16.4 µM [falling, partial curve]

## COc1ccc(CNC(=S)Nc2ccccc2)cc1Cl
[1]
  AC50: 14.1 µM [rising, partial curve, poor fit]

## Nc1c2ccccc2nc2ccccc12
[2]
  AC50: 7.94 µM [rising, partial curve, poor fit]

## Cc1ccc(NC(=O)c2nc[nH]c2C(=O)N[C@H](C)c2ccccc2)cc1
[1]
  AC50: 20.6 µM [rising, partial curve, poor fit]

## COCCn1c(=NC(=O)C2COc3ccccc3O2)sc2cc(S(N)(=O)=O)ccc21 (configuration not stated)
[1]
  AC50: 4.11 µM [rising, full curve, poor fit]

## CC(=O)c1cccc(N=Cc2c(O)c3ccccc3oc2=O)c1
[1]
  AC50: 6.31 µM [falling, full curve]

## Cc1ccc(C)c(NS(=O)(=O)c2ccc(OCC(=O)NCc3ccco3)cc2)c1
[1]
  AC50: 16.4 µM [falling, single point]

## CCCCNC(=S)N(C)/N=C/c1ccc(F)cc1
[1]
  AC50: 11.6 µM [rising, partial curve]

## Cc1cc(=O)oc2c(C(=O)/C=C\c3cccs3)c(O)ccc12
[1]
  AC50: 7.31 µM [falling, partial curve]

## O=C(O)c1ccc2c(c1)C(=O)N([C@H](Cc1ccccc1)C(=O)O)C2=O
[1]
  AC50: 9.2 µM [falling, partial curve, poor fit]

## CCc1cccc(CC)c1NC(=O)C1SC(=Nc2ccccc2C)C(c2nc3ccccc3s2)=C1N (configuration not stated)
[1]
  AC50: 29.1 µM [falling, single point]

## O=C1Cc2ccccc2C(=O)N1Cc1ccccc1
[1]
  AC50: 2.31 µM [falling, partial curve, poor fit]

## O=C(C1COc2ccccc2O1)N1CCN(c2ccccc2F)CC1 (configuration not stated)
[1]
  AC50: 0.1 µM [rising, full curve, poor fit]

## CCCCNC(=S)N/N=C/c1sccc1C
[1]
  AC50: 11.2 µM [rising, partial curve, poor fit]

## O=C(CSc1nnc(-c2ccc(C(F)(F)F)cn2)o1)Nc1ccccc1Cl
[1]
  AC50: 12.6 µM [falling, partial curve]

## CCOC(=O)/C=C/C(=O)OCC(=O)Nc1c(Cl)cccc1Cl
[1]
  AC50: 11.2 µM [falling, single point]

## CCn1nc(C)c(CNCc2cn[nH]c2-c2cc3ccccc3o2)c1C
[1]
  AC50: 35.5 µM [rising, single point]

## CCOC(=O)N1CCC(NC(=O)c2cc(-c3ccc(F)cc3)[nH]c2C)CC1
[1]
  AC50: 5.62 µM [falling, single point]

## COCCOC(=O)c1[nH]c2c(c1C)C(=O)CC(c1ccco1)C2 (configuration not stated)
[1]
  AC50: 16.4 µM [rising, partial curve, poor fit]

## Cc1cc(C)n(-c2nc(C)c(C)c(=O)n2CC(=O)Nc2ccc(OC(F)(F)F)cc2)n1
[1]
  AC50: 14.1 µM [rising, partial curve, poor fit]

## CCc1noc(C)c1C(=O)N1CCCC1
[1]
  AC50: 5.17 µM [falling, single point]

## C/C(CC(=O)Nc1ccc(N(C)C)cc1)=N\NC(=O)c1ccc(Cl)cc1Cl
[1]
  AC50: 0.1 µM [rising, full curve, poor fit]

## COc1ccc(CN2CCC(C(=O)NCCc3ccc(OC)c(OC)c3)CC2)c(OC)c1
[1]
  AC50: 20.6 µM [falling, partial curve, poor fit]

## Cc1cc(C)c(NC(=S)N(CCc2ccncc2)C(C)C)c(C)c1
[1]
  AC50: 0.562 µM [falling, full curve, poor fit]

## O=C(NCCCN1CCOCC1)c1ccc(Cl)s1
[1]
  AC50: 29.1 µM [falling, single point]
[2]
  AC50: 18.4 µM [rising, partial curve, poor fit]

## Cc1ccc(/C=N/NC(=O)Cc2cccn2C)cc1
[1]
  AC50: 5.62 µM [falling, partial curve, poor fit]

## COC(=O)c1cc(C(=O)OC)cc(N2C(=O)CC(NNC(=O)c3ccccc3Cl)C2=O)c1 (configuration not stated)
[1]
  AC50: 7.31 µM [falling, partial curve, poor fit]

## Cc1c(C(=O)OCC(=O)c2c(N)n(CC(C)C)c(=O)n(C)c2=O)oc2ccccc12
[1]
  AC50: 2.31 µM [rising, partial curve]

## COc1ccccc1N(CC(=O)Nc1ccccc1C(=O)N1CCCC1)S(C)(=O)=O
[1]
  AC50: 12.6 µM [rising, partial curve, poor fit]

## Cc1ccc(-n2c(C(C)C)nc3oc4ccccc4c(=O)c3c2=O)cc1
[1]
  AC50: 0.1 µM [falling, full curve, poor fit]

## Cc1cccc(NC(=O)c2c(O)c3ccccc3[nH]c2=O)c1
[1]
  AC50: 0.0891 µM [rising, full curve, poor fit]

## CCOc1ccc(S(=O)(=O)NNC(=S)Nc2ccc(Br)cc2)cc1
[1]
  AC50: 0.103 µM [rising, full curve, poor fit]

## Cc1cc(C)cc(C(=O)N2CC(=O)Nc3ccccc32)c1
[1]
  AC50: 1.84 µM [rising, full curve]
[2]
  AC50: 2.31 µM [falling, full curve]

## CCN(CC)S(=O)(=O)c1ccc(N(C)Cc2cccnc2)nc1
[1]
  AC50: 0.082 µM [rising, full curve, poor fit]

## FC(F)Oc1ccc(NC(=S)NCCc2ccccn2)cc1
[1]
  AC50: 35.5 µM [rising, single point]

## COc1ccccc1C(=O)NC(=O)COC(=O)c1ncc(Cl)c(Cl)c1Cl
[1]
  AC50: 3.66 µM [rising, partial curve, poor fit]

## Cc1ccc(-c2nn3c(C)nnc3c3ccccc23)cc1S(=O)(=O)NCc1ccco1
[1]
  AC50: 29.1 µM [falling, single point]

## OC1(c2cccc(C(F)(F)F)c2)CCN(Cc2nnnn2Cc2ccccc2)CC1
[1]
  AC50: 25.1 µM [falling, single point]
